Article doi:10.1101/2023.09.13.557516
These are yes or no findings as the source states them, for the method shown. In cells and extracts the contact can be indirect. Binding can be weak; no strength is given. Sequences can lack the tags named with a protein.

Target: HDL-YFP (Arabidopsis)
Assay: co-IP

B1: KYP-FLAG (KRYPTONITE/SUPPRESSOR OF …ON 3-9 HOMOLOG 4) (enzyme, UniProt Q8GZB6 1-624)
chain: MAGKRKRANAPDQTERRSSVRVQKVRQKALDEKARLVQERVKLLSDRKSEICVDDTELHEKEEENVDGSPKRRSPPKLTAMQKGKQKLSVSLNGKDVNLEPHLKVTKCLRLFNKQYLLCVQAKLSRPDLKGVTEMIKAKAILYPRKIIGDLPGIDVGHRFFSRAEMCAVGFHNHWLNGIDYMSMEYEKEYSNYKLPLAVSIVMSGQYEDDLDNADTVTYTGQGGHNLTGNKRQIKDQLLERGNLALKHCCEYNVPVRVTRGHNCKSSYTKRVYTYDGLYKVEKFWAQKGVSGFTVYKYRLKRLEGQPELTTDQVNFVAGRIPTSTSEIEGLVCEDISGGLEFKGIPATNRVDDSPVSPTSGFTYIKSLIIEPNVIIPKSSTGCNCRGSCTDSKKCACAKLNGGNFPYVDLNDGRLIESRDVVFECGPHCGCGPKCVNRTSQKRLRFNLEVFRSAKKGWAVRSWEYIPAGSPVCEYIGVVRRTADVDTISDNEYIFEIDCQQTMQGLGGRQRRLRDVAVPMNNGVSQSSEDENAPEFCIDAGSTGNFARFINHSCEPNLFVQCVLSSHQDIRLARVVLFAADNISPMQELTYDYGYALDSVHGPDGKVKQLACYCGALNCRKRLY
In the case of B1, the binding is reported as “binds”.
